# Assay: Etching test / evaluation of etching resistance of underlayer films against novolac underlayer film
# Conditions: 200 nm film, Ar/CF4/O2 50:5:5 sccm, vs novolac
# [1] = composition 10 parts in PGMEA (90) with DTDPI (0.5) and NIKALAC (0.5), baked at 240° C. for 60 seconds
# [2] = composition 10 parts in PGMEA (90), no acid generating agent, no crosslinking agent, baked at 300° C. for 60 seconds
SMILES,Evaluation of etching resistance [1],Evaluation of etching resistance [2]
"Oc1ccc([Te](Cl)(Cl)c2ccc(O)cc2)cc1 [BHPT, bis(4-hydroxyphenyl)tellurium dichloride]",A (The etching rate was less than −10% as compared with the underlayer film of novolac.),A (The etching rate was less than −10% as compared with the underlayer film of novolac.)
"CC1(OC(=O)COc2ccc([Te](Cl)(Cl)c3ccc(OCC(=O)OC4(C)C5CC6CC(C5)CC4C6)cc3)cc2)C2CC3CC(C2)CC1C3 (stereo not drawn) [BHPT-ADBAC, bis(4-(2-methyl-2-adamantyloxycarbonylmethoxy)phenyl)tellurium dichloride]",A (The etching rate was less than −10% as compared with the underlayer film of novolac.),A (The etching rate was less than −10% as compared with the underlayer film of novolac.)
"Oc1ccc([Te](Cl)(Cl)c2ccc(O)cc2O)cc1 [CCHT, (2,4-dihydroxyphenyl) (4-hydroxyphenyl)tellurium dichloride]",A (The etching rate was less than −10% as compared with the underlayer film of novolac.),
CC1(OC(=O)COc2ccc([Te](Cl)(Cl)c3ccc(OCC(=O)OC4(C)C5CC6CC(C5)CC4C6)cc3OCC(=O)OC3(C)C4CC5CC(C4)CC3C5)cc2)C2CC3CC(C2)CC1C3 (stereo not drawn) [CCHT-ADBAC],A (The etching rate was less than −10% as compared with the underlayer film of novolac.),
"Oc1ccc([Te](Cl)(Cl)c2ccc(O)c(-c3ccccc3)c2)cc1-c1ccccc1 [Ph-BHPT, bis(3-phenyl-4-hydroxyphenyl)tellurium dichloride]",A (The etching rate was less than −10% as compared with the underlayer film of novolac.),
CC1(OC(=O)COc2ccc([Te](Cl)(Cl)c3ccc(OCC(=O)OC4(C)C5CC6CC(C5)CC4C6)c(-c4ccccc4)c3)cc2-c2ccccc2)C2CC3CC(C2)CC1C3 (stereo not drawn) [Ph-BHPT-ADBAC],A (The etching rate was less than −10% as compared with the underlayer film of novolac.),
"Oc1ccc([Te]c2ccc(O)c(-c3ccccc3)c2)cc1-c1ccccc1 [Ph-TDP, bis(3-phenyl-4-hydroxyphenyl)tellurium]",A (The etching rate was less than −10% as compared with the underlayer film of novolac.),
CC1(OC(=O)COc2ccc([Te]c3ccc(OCC(=O)OC4(C)C5CC6CC(C5)CC4C6)c(-c4ccccc4)c3)cc2-c2ccccc2)C2CC3CC(C2)CC1C3 (stereo not drawn) [Ph-TDP-ADBAC],A (The etching rate was less than −10% as compared with the underlayer film of novolac.),
CC(C)(C)OC(=O)COc1ccc([Te]c2ccc(OCC(=O)OC(C)(C)C)c(-c3ccccc3)c2)cc1-c1ccccc1 [Ph-TDP-BOC],A (The etching rate was less than −10% as compared with the underlayer film of novolac.),
CCOC(C)Oc1ccc([Te](Cl)(Cl)c2ccc(OC(C)OCC)c(-c3ccccc3)c2)cc1-c1ccccc1 (stereo not drawn) [Ph-TDP-EE],A (The etching rate was less than −10% as compared with the underlayer film of novolac.),
"Oc1ccc([Te]c2ccc(O)cc2)cc1 [TDP, 4,4′-telluriumdiphenol]",A (The etching rate was less than −10% as compared with the underlayer film of novolac.),A (The etching rate was less than −10% as compared with the underlayer film of novolac.)
CC1(OC(=O)COc2ccc([Te]c3ccc(OCC(=O)OC4(C)C5CC6CC(C5)CC4C6)cc3)cc2)C2CC3CC(C2)CC1C3 (stereo not drawn) [TDP-ADBAC],A (The etching rate was less than −10% as compared with the underlayer film of novolac.),

# From patent US20200249573A1, “COMPOSITION FOR RESIST UNDERLAYER FILM FORMATION, UNDERLAYER FILM FOR LITHOGRAPHY, AND PATTERN FORMATION METHOD” (MITSUBISHI GAS CHEMICAL COMPANY, INC., priority 2016, published 2020)
